US7812015B2, “Prophylaxis and treatment of infectious diseases” (priority 2002, dated 2010)
Some entries share one result that the patent states for a list of compounds.

Molecular target: T1, acid sphingomyelinase (Homo sapiens, UniProt P17405)
T1 sequence (P17405 47-631): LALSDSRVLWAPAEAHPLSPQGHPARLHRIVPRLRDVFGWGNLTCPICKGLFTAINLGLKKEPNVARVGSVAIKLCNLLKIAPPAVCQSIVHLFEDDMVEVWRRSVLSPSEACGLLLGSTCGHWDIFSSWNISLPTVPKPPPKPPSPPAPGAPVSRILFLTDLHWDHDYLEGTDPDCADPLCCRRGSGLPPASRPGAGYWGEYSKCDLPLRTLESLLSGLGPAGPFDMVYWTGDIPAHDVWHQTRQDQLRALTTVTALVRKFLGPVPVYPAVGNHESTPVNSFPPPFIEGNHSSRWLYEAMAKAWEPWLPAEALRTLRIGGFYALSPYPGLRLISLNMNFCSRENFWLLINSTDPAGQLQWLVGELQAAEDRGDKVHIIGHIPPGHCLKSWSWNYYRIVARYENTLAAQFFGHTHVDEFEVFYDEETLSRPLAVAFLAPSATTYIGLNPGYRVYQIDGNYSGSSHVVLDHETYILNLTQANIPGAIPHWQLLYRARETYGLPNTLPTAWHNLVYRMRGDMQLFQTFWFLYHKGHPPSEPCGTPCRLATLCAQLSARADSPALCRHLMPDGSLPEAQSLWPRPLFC
Assay: Block of acid sphingomyelinase activity in control experiments
Assay type: cell-based
Details: within 20 min

CN(C)CCCN1c2ccccc2CCc2ccccc21 [imipramine]
block of acid sphingomyelinase activity: up to 98%
